Measurements published in doi:10.1101/2020.11.05.370320.
No constants are given. Whether binding was seen depends on the method and setting. Binding seen in cells or lysates may run through a third protein. A yes stands for co-enrichment or nearness to the bait. Other partners may have been found. For some assays here: A no says only that the protein was not detected with the bait. For some assays here: Where a sequence is shown, tags or fusion partners need not be part of it.

By UniProt entry, the sequences of proteins in these tests, tags left out.
UniProt Q9P209: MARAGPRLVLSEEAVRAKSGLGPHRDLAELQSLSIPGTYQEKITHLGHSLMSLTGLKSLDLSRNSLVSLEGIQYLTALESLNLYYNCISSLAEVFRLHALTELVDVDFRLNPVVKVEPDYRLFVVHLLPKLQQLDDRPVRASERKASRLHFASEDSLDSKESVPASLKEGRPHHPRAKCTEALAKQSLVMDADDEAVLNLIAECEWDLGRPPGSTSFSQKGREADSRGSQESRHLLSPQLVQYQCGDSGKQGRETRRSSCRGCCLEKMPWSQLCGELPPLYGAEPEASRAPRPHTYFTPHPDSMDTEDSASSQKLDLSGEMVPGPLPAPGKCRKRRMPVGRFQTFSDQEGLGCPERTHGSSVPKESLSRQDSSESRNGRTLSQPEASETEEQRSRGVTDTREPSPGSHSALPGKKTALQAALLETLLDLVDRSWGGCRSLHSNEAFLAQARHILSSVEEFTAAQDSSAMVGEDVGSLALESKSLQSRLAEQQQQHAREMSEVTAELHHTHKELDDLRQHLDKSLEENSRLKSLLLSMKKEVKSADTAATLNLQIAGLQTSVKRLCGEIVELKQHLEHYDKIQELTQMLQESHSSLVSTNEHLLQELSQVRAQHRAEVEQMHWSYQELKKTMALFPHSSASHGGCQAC

T1: V5-BirA*-AURKA (Aurora kinase A) (human), O14965
T1 chain: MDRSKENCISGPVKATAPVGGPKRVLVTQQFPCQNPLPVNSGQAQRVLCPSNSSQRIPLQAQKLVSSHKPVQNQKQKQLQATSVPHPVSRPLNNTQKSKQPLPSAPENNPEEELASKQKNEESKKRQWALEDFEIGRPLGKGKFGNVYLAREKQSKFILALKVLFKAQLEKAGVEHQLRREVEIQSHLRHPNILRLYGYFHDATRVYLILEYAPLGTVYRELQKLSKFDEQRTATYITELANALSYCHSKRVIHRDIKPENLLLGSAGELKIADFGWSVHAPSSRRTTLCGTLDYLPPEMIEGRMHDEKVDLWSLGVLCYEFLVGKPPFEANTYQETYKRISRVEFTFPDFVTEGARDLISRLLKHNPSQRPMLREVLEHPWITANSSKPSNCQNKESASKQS


Key:
[1] = target: Flag-BirA*-AURKA (Aurora kinase A) (human) (UniProt O14965); test: proximity labelling
[2] = target: T1, V5-BirA*-AURKA (Aurora kinase A) …; test: proximity labelling; conditions: remark: other sources report otherwise

binding [1]	binding [2]	Molecule
binds	–	PCM1 (from UniProt Q15154-1 1-2024)
binds	–	CEP72 (from UniProt Q9P209 1-647)
no binding	–	CEP63 (protein, UniProt Q96MT8 1-703) MEALLEGIQNRGHGGGFLTSCEAELQELMKQIDIMVAHKKSEWEGRTHALETCLKIREQELKSLRSQLDVTHKEVGMLHQQVEEHEKIKQEMTMEYKQELKKLHEELCILKRSYEKLQKKQMREFRGNTKNHREDRSEIERLTAKIEEFRQKSLDWEKQRLIYQQQVSSLEAQRKALAEQSEIIQAQLVNRKQKLESVELSSQSEIQHLSSKLERANDTICANELEIERLTMRVNDLVGTSMTVLQEQQQKEEKLRESEKLLEALQEEKRELKAALQSQENLIHEARIQKEKLQEKVKATNTQHAVEAIRPREESLAEKKYTSQGQGDLDSVLSQLNFTHTSEDLLQAEVTCLEGSLESVSATCKQLSQELMEKYEELKRMEAHNNEYKAEIKKLKEQILQGEQSYSSALEGMKMEISHLTQELHQRDITIASTKGSSSDMEKRLRAEMQKAEDKAVEHKEILDQLESLKLENRHLSEMVMKLELGLHEAKEISLADLQENYIEALNKLVSENQQLQKDLMNTKSQLEISTQMCKKQNDRIFKPTHSRTTEFKNTEFKPTHGQHRHDGIKTEHYKTDLHSPRGQASDSINPMSRVLSPLSPQISPCSSTRSLTSYSLCKTHSLPSALDTNEANFSDTMSESMNDQEEFISSCSLPVSPLGSIATRFLEEEELRSHHILERLDAHIEELKRESEKTVRQFTALK
–	binds	CP110, O43303 1-1012 (protein) MEEYEKFCEKSLARIQEASLSTESFLPAQSESISLIRFHGVAILSPLLNIEKRKEMQQEKQKALDVEARKQVNRKKALLTRVQEILDNVQVRKAPNASDFDQWEMETVYSNSEVRNLNVPATFPNSFPSHTEHSTAAKLDKIAGILPLDNEDQCKTDGIDLARDSEGFNSPKQCDSSNISHVENEAFPKTSSATPQETLISDGPFSVNEQQDLPLLAEVIPDPYVMSLQNLMKKSKEYIEREQSRRSLRGSINRIVNESHLDKEHDAVEVADCVKEKGQLTGKHCVSVIPDKPSLNKSNVLLQGASTQASSMSMPVLASFSKVDIPIRTGHPTVLESNSDFKVIPTFVTENNVIKSLTGSYAKLPSPEPSMSPKMHRRRSRTSSACHILINNPINACELSPKGKEQAMDLIIQDTDENTNVPEIMPKLPTDLAGVCSSKVYVGKNTSEVKEDVVLGKSNQVCQSSGNHLENKVTHGLVTVEGQLTSDERGAHIMNSTCAAMPKLHEPYASSQCIASPNFGTVSGLKPASMLEKNCSLQTELNKSYDVKNPSPLLMQNQNTRQQMDTPMVSCGNEQFLDNSFEKVKRRLDLDIDGLQKENCPYVITSGITEQERQHLPEKRYPKGSGFVNKNKMLGTSSKESEELLKSKMLAFEEMRKRLEEQHAQQLSLLIAEQEREQERLQKEIEEQEKMLKEKKAMTAEASELDINNAVELEWRKISDSSLLETMLSQADSLHTSNSNSSGFTNSAMQYSFVSANEAPFYLWGSSTSGLTKLSVTRPFGRAKTRWSQVFSLEIQAKFNKITAVAKGFLTRRLMQTDKLKQLRQTVKDTMEFIRSFQSEAPLKRGIVSAQDASLQERVLAQLRAALYGIHDIFFVMDAAERMSILHHDREVRKEKMLRQMDKMKSPRVALSAATQKSLDRKKYMKAAEMGMPNKKFLVKQNPSETRVLQPNQGQNAPVHRLLSRQGTPKTSVKGVVQNRQKPSQSRVPNRVPVSGVYAGKIQRKRPNVATI
binds	–	CEP131 (protein, UniProt Q9UPN4 1-1083) MKGTRAIGSVPERSPAGVDLSLTGLPPPVSRRPGSAATTKPIVRSVSVVTGSEQKRKVLEATGPGGSQAINNLRRSNSTTQVSQPRSGSPRPTEPTDFLMLFEGSPSGKKRPASLSTAPSEKGATWNVLDDQPRGFTLPSNARSSSALDSPAGPRRKECTVALAPNFTANNRSNKGAVGNCVTTMVHNRYTPSERAPPLKSSNQTAPSLNNIIKAATCEGSESSGFGKLPKNVSSATHSARNNTGGSTGLPRRKEVTEEEAERFIHQVNQATVTIQRWYRHQVQRRGAGAARLEHLLQAKREEQRQRSGEGTLLDLHQQKEAARRKAREEKARQARRAAIQELQQKRALRAQKASTAERGPPENPRETRVPGMRQPAQELSPTPGGTAHQALKANNTGGGLPAAGPGDRCLPTSDSSPEPQQPPEDRTQDVLAQDAAGDNLEMMAPSRGSAKSRGPLEELLHTLQLLEKEPDVLPRPRTHHRGRYAWASEVTTEDDASSLTADNLEKFGKLSAFPEPPEDGTLLSEAKLQSIMSFLDEMEKSGQDQLDSQQEGWVPEAGPGPLELGSEVSTSVMRLKLEVEEKKQAMLLLQRALAQQRDLTARRVKETEKALSRQLQRQREHYEATIQRHLAFIDQLIEDKKVLSEKCEAVVAELKQEDQRCTERVAQAQAQHELEIKKLKELMSATEKARREKWISEKTKKIKEVTVRGLEPEIQKLIARHKQEVRRLKSLHEAELLQSDERASQRCLRQAEELREQLEREKEALGQQERERARQRFQQHLEQEQWALQQQRQRLYSEVAEERERLGQQAARQRAELEELRQQLEESSSALTRALRAEFEKGREEQERRHQMELNTLKQQLELERQAWEAGRTRKEEAWLLNREQELREEIRKGRDKEIELVIHRLEADMALAKEESEKAAESRIKRLRDKYEAELSELEQSERKLQERCSELKGQLGEAEGENLRLQGLVRQKERALEDAQAVNEQLSSERSNLAQVIRQEFEDRLAASEEETRQAKAELATLQARQQLELEEVHRRVKTALARKEEAVSSLRTQHEAAVKRADHLEELLEQHRRPTPSTK
